# From PubChem BioAssay AID493014 (National Center for Advancing Translational Sciences (NCATS), 2011)
# The list shows a part of the results. These are further read-outs of the screen, such as a control signal, another cell line or another target. No call is given for them. The list favours compounds with an active or inconclusive main result. Words in brackets tell the shape of the fitted curve; partial curves, single points and poor fits give uncertain potencies.
# Assay: qHTS Assay to Find Inhibitors of Chronic Active B-Cell Receptor Signaling
# Settings: ABC-DLBCL IkBa-CBG/CBR reporter, luminescence ratio (green luciferase fused to IkBa over red control in TMD8 lymphoma cells), 4 h
# In short: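 Doxycycline induced both beetle luciferases in TMD8 lymphoma cells; IKK-driven degradation limits the IkappaBalpha-fused green signal, while red luminescence normalises for cell number and nonspecific effects. Compounds tested up to 46 uM, 4 hrs.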
# [1] = measured here: CBR red luminescence, cell number
# [2] = measured here: IkBa-CBG green luminescence
SMILES,AC50 [1],AC50 [2]
Cc1nnc(SCc2nc3sc(C(=O)O)c(C)c3c(=O)[nH]2)s1,"17.8 µM [falling, partial curve]",
CC(N=Cc1c(O)c2ccccc2oc1=O)C(=O)O (stereo unspecified),"2.51 µM [falling, partial curve]",
CCOC(=O)c1[nH]c(C)c(C(=O)OC(C)C(=O)Nc2ncc(Cl)cc2Cl)c1C (stereo unspecified),"1.12 µM [falling, partial curve]",
CCCOC(=O)c1c(NC(=O)CCC(=O)O)sc2c1CCCCC2,"6.31 µM [falling, partial curve, poor fit]",
Cc1cc(-c2nn(-c3ccccc3F)cc2CNCCc2cnc[nH]2)c(C)s1,"20 µM [rising, single point]",
O=C(CN1C(=O)NC2(CCCCC2)C1=O)N1CCOCC1,"9.2 µM [rising, partial curve, poor fit]",
COc1ccc2cc3c(N)c(C(=O)N4CCCC4)sc3nc2c1,"1.84 µM [falling, partial curve, poor fit]",
O=C(Nc1nc(-c2ccncc2)cs1)C1COc2ccccc2O1 (stereo unspecified),"3.26 µM [rising, partial curve, poor fit]",
Cc1ccccc1NC(=O)NC1CCS(=O)(=O)C1 (stereo unspecified),"35.5 µM [rising, single point]",
CNC(=S)N1N=C(c2ccccc2)CC1c1ccc(Br)cc1 (stereo unspecified),"6.31 µM [rising, full curve, poor fit]",
CCCCN(CC)CCCNC(=O)c1ccc2c(c1)N(Cc1ccc(C)cc1)C(=O)c1ccccc1S2,"7.94 µM [falling, partial curve, poor fit]",
CCCCCCCN1C/C=C\C(c2ccc(OC)cc2)N(Cc2ccc(F)cc2)C(=O)[C@H]1Cc1ccccc1 (stereo partly specified),"3.55 µM [rising, full curve, poor fit]",
O=C(COC(=O)/C=C/c1ccccc1[N+](=O)[O-])Nc1ccc(OCc2ccccc2)cc1,"2.06 µM [rising, full curve, poor fit]",
COc1ccc(CCNC(=O)C2CCN(S(=O)(=O)N3CCC4(CC3)OCCO4)CC2)cc1OC,"1.3 µM [rising, full curve, poor fit]",
O=C(N/N=C/c1ccc[nH]1)c1ccc([N+](=O)[O-])cc1,"5.17 µM [rising, single point]",
CCc1ccc(N(CC(=O)Nc2nc3ccc(C)cc3s2)S(=O)(=O)c2c(C)noc2C)cc1,"1.84 µM [falling, partial curve, poor fit]",
O=C1N/C(=C/c2cccs2)C(=O)N1Cc1ccc(F)cc1,"35.5 µM [rising, partial curve, poor fit]",
COc1cccc(NC(=O)COc2ccc(Br)c(C)c2)c1,"12.6 µM [falling, partial curve, poor fit]",
CCc1nnc(NC(=O)CSc2nnc(-c3ccccc3O)n2CC)s1,"5.17 µM [rising, full curve, poor fit]",
O=C(O)c1cc(O)ccc1N=Nc1ccccc1,"7.94 µM [falling, partial curve, poor fit]",

SMILES,AC50 [1],AC50 [2]
O=C(CCCN1C(=O)/C(=C\c2ccco2)SC1=S)Nc1ccc2ccccc2c1,"9.2 µM [falling, partial curve, poor fit]",
N/C(Cc1cccs1)=N\OC(=O)COc1ccc(Br)cc1,"23.1 µM [falling, single point]",
O=C(O)CC(NC(=O)C(c1ccccc1)c1ccccc1)c1ccco1 (stereo unspecified),"2.91 µM [falling, single point]",
O=C(NCC1COc2ccccc2O1)c1ccc(NC(=O)C2CCCO2)cc1 (stereo unspecified),"6.51 µM [falling, single point]",
Cc1ccc(C(=O)NNC(=O)c2ccncc2)cc1C,"15.8 µM [falling, single point]",
COc1ccc(-c2nnn(CC(=O)N(Cc3ccco3)C(C(=O)NCC3CCCO3)c3ccco3)n2)cc1 (stereo unspecified),"23.1 µM [rising, single point]",
O=C(Nc1ccc(N2CCN(C(=O)c3ccc(Cl)cc3)CC2)cc1)c1ccc([N+](=O)[O-])o1,"3.16 µM [falling, partial curve, poor fit]","2.82 µM [falling, partial curve, poor fit]"
COc1nc(N2CCOCC2)nc(C)c1[N+](=O)[O-],"23.1 µM [rising, single point]",
O=C(Cn1c(=O)n(Cc2ccco2)c(=O)c2ccccc21)NCC1CCCO1 (stereo unspecified),"0.13 µM [falling, full curve, poor fit]",
COc1cccc(CN2C(=O)N(C(C)C)C(N(O)C(=O)NC(C)C)C2(C)C)c1OC (stereo unspecified),"0.631 µM [falling, full curve, poor fit]",
COc1ccc(NS(=O)(=O)c2cccc(C(=O)NNC(=O)CNC(=O)c3ccccc3F)c2)cc1,"23.1 µM [rising, single point]",
Cc1cc(-n2c(C)cc(C(=O)CN3C(=O)NC4(CCCCC4C)C3=O)c2C)no1 (stereo unspecified),"35.5 µM [falling, partial curve, poor fit]",
CNc1nnc(-c2ccc(C)cc2)c2ccccc12,"3.16 µM [rising, partial curve, poor fit]",
Cc1ccc(NC(=O)C/C(N)=N/OC(=O)Nc2ccc(C)c(Cl)c2)cc1,"2.31 µM [rising, partial curve, poor fit]",
Cc1nc2cc3ccccc3cc2c(=O)[nH]1,"1.78 µM [falling, full curve]",
CCCOc1c(Cl)cc(/C=N/O)cc1OCC,,"23.1 µM [falling, single point]"
CCOC(=O)C1(Cc2cccc(OC)c2)CCN(C(C)CC(C)(C)O)CC1 (stereo unspecified),"3.55 µM [rising, full curve, poor fit]",
COC(=O)c1ccc(NC(=O)CN(c2ccc(OC)cc2)S(C)(=O)=O)cc1,"1.64 µM [rising, partial curve, poor fit]",
Oc1ccc2nnc3c(Br)cnn3c2c1,"35.5 µM [falling, single point]",
CC(C)C(=O)c1ccc(O)c(O)c1,"8.91 µM [rising, partial curve]",

# As entered above:
# Value of `O=C(NCC1COc2ccccc2O1)c1ccc(NC(=O)C2CCCO2)cc1` (stereo unspecified) under AC50 [1]: 6.51 µM [falling, single point]
# Value of `O=C1N/C(=C/c2cccs2)C(=O)N1Cc1ccc(F)cc1` under AC50 [1]: 35.5 µM [rising, partial curve, poor fit]
